Experimental findings from publication PMC5537237 are described below.

The chains behind the UniProt entries cited, without tags or fusion partners.
UniProt P07355: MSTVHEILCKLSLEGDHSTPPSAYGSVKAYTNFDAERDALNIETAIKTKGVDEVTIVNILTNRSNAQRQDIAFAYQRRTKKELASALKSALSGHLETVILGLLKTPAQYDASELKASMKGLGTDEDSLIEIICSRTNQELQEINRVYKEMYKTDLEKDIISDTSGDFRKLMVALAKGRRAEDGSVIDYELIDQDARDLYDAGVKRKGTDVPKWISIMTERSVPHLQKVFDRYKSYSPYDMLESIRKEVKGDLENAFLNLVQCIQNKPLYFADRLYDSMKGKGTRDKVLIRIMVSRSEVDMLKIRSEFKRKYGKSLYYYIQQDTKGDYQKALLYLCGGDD

Results are given in words; binding and its absence hold for the method and conditions named. Some results given as binding are weak or reduced against the parent protein; the word gives no strength.

The experiment addresses His-tagged S100A10 (co-expressed with annexinA2) (UniProt P60903). Kind of experiment: SEC-MALS; 500 µg of A2t purified from co-expression injected on a Superdex 200 column; MALLS, composition of fractions confirmed by western blotting and SDS-PAGE; both purified.

Regarding “Flag-tagged AnnexinA2 (co-expressed with S100A10) (from UniProt P07355 1-339)”, the binding result is given as “binds”.
